log2 fold change data for 32 targets are collected here from the supplement of paper PMC10849652.

Protein sequences, listed by entry. Tags and fused reporters are not part of them. Lines headed by an entry give the natural chain unless they say otherwise; changes in a name come on top.
UniProt Q99574: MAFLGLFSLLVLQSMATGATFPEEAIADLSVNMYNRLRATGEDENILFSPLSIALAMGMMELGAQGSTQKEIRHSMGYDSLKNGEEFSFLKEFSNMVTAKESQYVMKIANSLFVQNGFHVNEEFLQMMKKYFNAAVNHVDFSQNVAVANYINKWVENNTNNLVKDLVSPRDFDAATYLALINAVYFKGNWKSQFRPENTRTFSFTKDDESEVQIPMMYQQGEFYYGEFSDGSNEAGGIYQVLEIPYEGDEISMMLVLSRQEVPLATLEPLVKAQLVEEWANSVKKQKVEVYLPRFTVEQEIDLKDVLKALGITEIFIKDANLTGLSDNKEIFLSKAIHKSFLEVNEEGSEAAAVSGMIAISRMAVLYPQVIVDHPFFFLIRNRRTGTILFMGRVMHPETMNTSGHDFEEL
UniProt O43765: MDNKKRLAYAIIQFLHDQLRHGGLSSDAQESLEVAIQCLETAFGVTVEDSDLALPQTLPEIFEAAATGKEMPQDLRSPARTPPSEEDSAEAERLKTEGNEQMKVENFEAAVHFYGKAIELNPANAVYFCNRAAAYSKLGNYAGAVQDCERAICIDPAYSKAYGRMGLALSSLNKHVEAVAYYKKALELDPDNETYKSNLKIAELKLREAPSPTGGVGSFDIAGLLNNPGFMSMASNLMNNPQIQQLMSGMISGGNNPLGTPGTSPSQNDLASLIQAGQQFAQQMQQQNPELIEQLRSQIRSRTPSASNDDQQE
UniProt Q15427: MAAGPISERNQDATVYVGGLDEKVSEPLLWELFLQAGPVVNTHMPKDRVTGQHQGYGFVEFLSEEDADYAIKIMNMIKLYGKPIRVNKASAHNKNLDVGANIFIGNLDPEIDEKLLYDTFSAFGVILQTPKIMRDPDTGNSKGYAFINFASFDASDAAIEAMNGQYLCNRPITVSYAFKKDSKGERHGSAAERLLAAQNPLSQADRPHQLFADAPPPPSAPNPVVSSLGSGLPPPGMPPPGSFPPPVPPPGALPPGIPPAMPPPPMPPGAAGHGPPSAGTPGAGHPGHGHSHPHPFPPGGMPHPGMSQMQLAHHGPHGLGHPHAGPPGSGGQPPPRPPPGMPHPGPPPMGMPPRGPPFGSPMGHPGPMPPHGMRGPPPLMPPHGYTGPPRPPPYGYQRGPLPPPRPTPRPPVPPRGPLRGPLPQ
UniProt O75533, whole entry, looked up: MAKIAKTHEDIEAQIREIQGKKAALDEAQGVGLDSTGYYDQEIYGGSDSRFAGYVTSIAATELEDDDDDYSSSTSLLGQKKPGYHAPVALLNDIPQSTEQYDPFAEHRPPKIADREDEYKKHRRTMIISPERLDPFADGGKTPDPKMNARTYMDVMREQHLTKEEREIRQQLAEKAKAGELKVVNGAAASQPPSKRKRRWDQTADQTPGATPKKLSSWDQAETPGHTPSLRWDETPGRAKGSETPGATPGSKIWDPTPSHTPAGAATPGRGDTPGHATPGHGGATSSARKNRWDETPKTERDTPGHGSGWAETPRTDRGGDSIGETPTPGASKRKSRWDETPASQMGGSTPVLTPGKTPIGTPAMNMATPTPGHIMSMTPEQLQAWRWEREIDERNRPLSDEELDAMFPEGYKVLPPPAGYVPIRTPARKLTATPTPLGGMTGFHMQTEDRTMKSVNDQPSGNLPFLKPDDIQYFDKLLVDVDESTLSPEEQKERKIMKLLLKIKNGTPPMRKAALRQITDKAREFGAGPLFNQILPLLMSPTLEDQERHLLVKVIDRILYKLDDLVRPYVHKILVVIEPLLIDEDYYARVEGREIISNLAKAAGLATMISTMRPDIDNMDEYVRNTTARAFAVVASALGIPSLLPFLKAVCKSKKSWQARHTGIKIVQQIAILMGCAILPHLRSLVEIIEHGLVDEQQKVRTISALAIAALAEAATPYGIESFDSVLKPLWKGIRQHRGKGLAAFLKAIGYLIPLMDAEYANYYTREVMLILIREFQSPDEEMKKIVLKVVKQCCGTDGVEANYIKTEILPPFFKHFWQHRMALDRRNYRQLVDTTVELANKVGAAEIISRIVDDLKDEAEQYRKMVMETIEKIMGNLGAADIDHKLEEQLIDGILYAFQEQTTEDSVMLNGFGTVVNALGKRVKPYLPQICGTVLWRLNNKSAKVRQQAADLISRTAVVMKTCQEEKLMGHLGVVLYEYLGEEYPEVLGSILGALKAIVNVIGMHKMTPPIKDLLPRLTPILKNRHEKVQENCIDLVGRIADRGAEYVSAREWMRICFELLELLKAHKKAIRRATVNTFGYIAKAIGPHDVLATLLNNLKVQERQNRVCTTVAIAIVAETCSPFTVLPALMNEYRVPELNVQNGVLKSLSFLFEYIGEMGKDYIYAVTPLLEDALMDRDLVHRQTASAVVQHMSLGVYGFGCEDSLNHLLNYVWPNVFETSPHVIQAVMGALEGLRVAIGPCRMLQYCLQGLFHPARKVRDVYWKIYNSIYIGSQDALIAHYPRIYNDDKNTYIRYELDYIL
UniProt Q12872: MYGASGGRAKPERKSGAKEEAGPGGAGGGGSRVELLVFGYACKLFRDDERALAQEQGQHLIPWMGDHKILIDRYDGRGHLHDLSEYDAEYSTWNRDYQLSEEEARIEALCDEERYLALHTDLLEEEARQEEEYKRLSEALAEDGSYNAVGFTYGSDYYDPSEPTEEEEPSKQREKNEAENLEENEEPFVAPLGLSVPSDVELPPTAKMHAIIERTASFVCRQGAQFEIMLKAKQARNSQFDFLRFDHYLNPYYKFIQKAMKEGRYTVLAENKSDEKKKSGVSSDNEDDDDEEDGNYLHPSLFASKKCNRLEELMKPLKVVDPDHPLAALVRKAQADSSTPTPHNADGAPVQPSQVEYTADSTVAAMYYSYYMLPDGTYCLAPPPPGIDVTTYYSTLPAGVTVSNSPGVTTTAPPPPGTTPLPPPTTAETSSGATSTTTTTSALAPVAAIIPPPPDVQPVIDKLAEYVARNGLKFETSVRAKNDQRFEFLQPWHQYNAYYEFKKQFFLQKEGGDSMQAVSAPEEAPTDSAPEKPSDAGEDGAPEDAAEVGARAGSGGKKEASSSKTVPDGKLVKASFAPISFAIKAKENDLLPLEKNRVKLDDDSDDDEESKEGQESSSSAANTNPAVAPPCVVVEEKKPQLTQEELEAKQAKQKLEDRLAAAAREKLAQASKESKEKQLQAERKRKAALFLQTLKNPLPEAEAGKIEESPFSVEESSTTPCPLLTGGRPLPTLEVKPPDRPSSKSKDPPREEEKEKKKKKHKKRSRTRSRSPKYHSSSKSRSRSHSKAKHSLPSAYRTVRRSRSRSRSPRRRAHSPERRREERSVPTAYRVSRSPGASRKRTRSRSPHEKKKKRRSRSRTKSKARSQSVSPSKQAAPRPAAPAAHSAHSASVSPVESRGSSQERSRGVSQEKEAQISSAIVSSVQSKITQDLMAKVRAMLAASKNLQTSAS
UniProt P50452: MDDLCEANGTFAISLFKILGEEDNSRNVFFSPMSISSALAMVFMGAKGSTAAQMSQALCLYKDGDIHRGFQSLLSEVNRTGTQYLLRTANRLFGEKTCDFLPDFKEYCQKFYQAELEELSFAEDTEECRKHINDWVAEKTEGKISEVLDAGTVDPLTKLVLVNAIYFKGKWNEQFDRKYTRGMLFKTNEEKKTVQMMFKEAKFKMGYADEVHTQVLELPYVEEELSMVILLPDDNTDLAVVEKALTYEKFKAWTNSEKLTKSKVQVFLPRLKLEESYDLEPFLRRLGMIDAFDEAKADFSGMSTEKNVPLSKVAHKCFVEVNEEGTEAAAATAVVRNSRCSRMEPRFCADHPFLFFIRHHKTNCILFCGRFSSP
UniProt Q9Y3B4: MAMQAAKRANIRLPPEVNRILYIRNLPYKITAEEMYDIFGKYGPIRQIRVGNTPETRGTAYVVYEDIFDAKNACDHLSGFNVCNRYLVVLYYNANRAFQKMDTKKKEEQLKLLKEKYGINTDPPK
UniProt Q96EB6: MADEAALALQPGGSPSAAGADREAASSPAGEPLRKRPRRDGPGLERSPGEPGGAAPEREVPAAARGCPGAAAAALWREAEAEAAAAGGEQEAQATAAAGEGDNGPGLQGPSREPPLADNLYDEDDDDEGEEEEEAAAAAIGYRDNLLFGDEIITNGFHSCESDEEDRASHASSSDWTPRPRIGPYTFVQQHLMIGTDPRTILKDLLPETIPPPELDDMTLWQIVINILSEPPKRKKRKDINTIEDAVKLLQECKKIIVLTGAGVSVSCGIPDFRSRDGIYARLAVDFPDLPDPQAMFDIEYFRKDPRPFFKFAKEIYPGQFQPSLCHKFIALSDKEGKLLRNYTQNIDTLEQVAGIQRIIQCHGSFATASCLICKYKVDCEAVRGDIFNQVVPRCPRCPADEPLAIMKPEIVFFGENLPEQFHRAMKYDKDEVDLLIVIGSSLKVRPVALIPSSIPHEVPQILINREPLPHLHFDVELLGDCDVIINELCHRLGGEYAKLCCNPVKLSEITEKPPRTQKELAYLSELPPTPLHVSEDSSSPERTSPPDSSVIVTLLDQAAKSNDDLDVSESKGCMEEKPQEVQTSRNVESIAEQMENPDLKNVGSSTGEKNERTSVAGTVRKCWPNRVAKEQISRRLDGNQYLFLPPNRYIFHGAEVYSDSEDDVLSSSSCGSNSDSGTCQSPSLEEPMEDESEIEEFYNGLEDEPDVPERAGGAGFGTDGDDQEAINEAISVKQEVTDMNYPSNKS
UniProt Q8IZQ5, whole entry, looked up: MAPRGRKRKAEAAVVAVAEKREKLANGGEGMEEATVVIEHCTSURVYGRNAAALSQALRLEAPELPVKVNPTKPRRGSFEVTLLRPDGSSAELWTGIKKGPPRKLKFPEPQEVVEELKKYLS
UniProt Q96EQ0: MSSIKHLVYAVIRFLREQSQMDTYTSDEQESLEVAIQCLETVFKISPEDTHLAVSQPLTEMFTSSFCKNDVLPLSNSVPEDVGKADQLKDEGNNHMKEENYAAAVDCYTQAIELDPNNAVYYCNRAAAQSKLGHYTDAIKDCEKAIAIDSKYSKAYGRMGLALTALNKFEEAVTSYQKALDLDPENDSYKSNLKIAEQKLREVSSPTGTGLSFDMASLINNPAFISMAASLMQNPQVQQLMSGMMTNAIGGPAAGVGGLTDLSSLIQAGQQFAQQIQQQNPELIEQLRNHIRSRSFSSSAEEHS
UniProt Q8NC51: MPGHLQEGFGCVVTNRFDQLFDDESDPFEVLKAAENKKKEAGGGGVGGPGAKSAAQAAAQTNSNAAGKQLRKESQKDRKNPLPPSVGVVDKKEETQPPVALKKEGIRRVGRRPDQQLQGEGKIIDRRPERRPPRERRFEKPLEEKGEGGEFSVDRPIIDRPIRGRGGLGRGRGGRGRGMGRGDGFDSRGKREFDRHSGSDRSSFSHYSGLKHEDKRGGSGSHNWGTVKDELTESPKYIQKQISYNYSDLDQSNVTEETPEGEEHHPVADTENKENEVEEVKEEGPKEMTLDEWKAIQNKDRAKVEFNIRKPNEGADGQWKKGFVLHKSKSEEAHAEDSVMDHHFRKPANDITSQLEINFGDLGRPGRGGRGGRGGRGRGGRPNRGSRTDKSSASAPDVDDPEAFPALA
UniProt O60613, whole entry, looked up: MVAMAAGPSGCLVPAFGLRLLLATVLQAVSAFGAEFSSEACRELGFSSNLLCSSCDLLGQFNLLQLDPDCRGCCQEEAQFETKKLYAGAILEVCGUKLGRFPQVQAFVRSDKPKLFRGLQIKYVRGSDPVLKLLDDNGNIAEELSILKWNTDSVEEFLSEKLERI
UniProt Q92599: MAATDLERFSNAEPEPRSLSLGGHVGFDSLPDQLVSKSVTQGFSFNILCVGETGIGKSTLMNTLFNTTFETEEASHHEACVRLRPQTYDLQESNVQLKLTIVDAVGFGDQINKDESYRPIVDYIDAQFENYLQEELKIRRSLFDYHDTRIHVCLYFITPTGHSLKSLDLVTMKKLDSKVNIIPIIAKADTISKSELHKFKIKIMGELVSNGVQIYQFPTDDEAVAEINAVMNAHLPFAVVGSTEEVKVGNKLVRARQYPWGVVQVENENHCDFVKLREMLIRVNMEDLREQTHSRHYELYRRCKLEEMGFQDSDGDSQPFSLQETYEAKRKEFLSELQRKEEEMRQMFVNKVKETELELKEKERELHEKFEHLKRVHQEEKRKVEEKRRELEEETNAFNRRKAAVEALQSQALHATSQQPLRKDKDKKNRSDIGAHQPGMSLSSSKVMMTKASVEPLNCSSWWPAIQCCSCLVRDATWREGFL
UniProt P60468, whole entry, looked up: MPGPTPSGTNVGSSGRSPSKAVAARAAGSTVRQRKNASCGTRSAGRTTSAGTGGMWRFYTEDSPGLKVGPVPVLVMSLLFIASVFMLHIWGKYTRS
UniProt Q96ES7: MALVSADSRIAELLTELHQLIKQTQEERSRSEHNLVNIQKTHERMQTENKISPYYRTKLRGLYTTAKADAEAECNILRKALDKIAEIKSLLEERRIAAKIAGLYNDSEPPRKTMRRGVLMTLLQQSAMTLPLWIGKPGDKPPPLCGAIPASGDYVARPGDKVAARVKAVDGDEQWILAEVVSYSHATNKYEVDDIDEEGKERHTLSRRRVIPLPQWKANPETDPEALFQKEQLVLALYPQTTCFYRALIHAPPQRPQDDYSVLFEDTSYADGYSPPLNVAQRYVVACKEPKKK

The other results are listed elsewhere or left out.

Compound in the experiment: C1CCN(C1)C(=O)NC2=CC=CC(=C2)NC3=NC=C(C(=N3)NCCC4=CN=CN4)Br
Nature of the experiment: log2 fold change, soluble protein after heating vs DMSO (PISA); higher = thermal stabilisation; K562 cells, 10 uM, 30 min; active = over 0.2 and 3.5 SD of the protein, either way, in both replicates (recomputed). The method in brief:
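Values are thermal stability changes relative to control samples and are taken from duplicates. They are stated as log2 fold changes. Before quantification by TMTpro 16plex LC-MS/MS with equalised channel sums, K562 cells at 2×10^6 cells/mL were treated with 10 μM compound for 30 min, heated in aliquots for 3 min across 48°C-58°C, pooled, extracted in PBS with 0.5% NP-40 at 4°C, and centrifuged at 21,000xg for 90 min to give the soluble supernatant.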
As to SF3A1 (UniProt Q15459), the log2 fold change is inactive: -0.023. For SERPINI1 (UniProt Q99574) the value was inactive: 0.002. Take SGTA (UniProt O43765): the log2 fold change is inactive: -0.008.

In the case of SF3B4 (UniProt Q15427), the log2 fold change is inactive: -0.015. On to SF3B1 (UniProt O75533), for which the log2 fold change is inactive: -0.013. For SFSWAP isoform 2 (UniProt Q12872) the value was inactive: -0.069. For SENP6 (UniProt Q9GZR1) the value was inactive: -0.061.

With SEMA4C (UniProt Q9C0C4), the log2 fold change is inactive: -0.056. The result for SIRT6 (UniProt Q8N6T7) reads inactive: -0.12; that for SERGEF (UniProt Q9UGK8), inactive: -0.02. On to SERPINB8 (UniProt P50452), for which the log2 fold change was inactive: 0.04. The result for SF3A2 (UniProt Q15428) reads inactive: -0.062. With SHMT1 (UniProt P34896), the log2 fold change was inactive: -0.03. As for SEPTIN9 (UniProt Q9UHD8), the log2 fold change was inactive: 0.003. Turning to SEPTIN5 (UniProt Q99719), the log2 fold change was inactive: -0.012. The result for SIDT2 isoform 2 (UniProt Q8NBJ9) reads inactive: 0.002; that for SH3BP5L (UniProt Q7L8J4), inactive: -0.017; that for SERPINH1 (UniProt P50454), inactive: -0.004. For SF3B6 (UniProt Q9Y3B4) the value was inactive: 0.029. For the target SEL1L (UniProt Q9UBV2), the log2 fold change was inactive: 0.019. The result for SFXN4 (UniProt Q6P4A7) reads inactive: 0.008; that for SERPINA7 (UniProt P05543), inactive: 0.164. Take SEPTIN6 (UniProt Q14141): the log2 fold change was inactive: 0.022. For SIRT1 (UniProt Q96EB6) the value was inactive: 0; for SELENOH (UniProt Q8IZQ5), inactive: -0.052; for SGTB (UniProt Q96EQ0), inactive: -0.014. Turning to SERBP1 isoform 3 (UniProt Q8NC51), the log2 fold change was inactive: 0.021. For SIRT5 (UniProt Q9NXA8) the value was inactive: -0.044; for SELENOF (UniProt O60613), inactive: -0.039; for SEPTIN8 (UniProt Q92599), inactive: 0.005. SEC61B (UniProt P60468): the log2 fold change was inactive: 0.064.

Consider SGF29 (UniProt Q96ES7), for which the log2 fold change is inactive: -0.028.
